Assay results: patent US20260297042A1, “BIARYLAMIDE DERIVATIVES AND THEIR USE AS PKMYT1 INHIBITORS” (CANCER RESEARCH TECHNOLOGY LIMITED, priority 2023, published 2026)

Sequences of proteins named here, by UniProt entry; tags and fusion partners are left off. Residues count along the entry.
UniProt Q99640, 75-362 limits assumed: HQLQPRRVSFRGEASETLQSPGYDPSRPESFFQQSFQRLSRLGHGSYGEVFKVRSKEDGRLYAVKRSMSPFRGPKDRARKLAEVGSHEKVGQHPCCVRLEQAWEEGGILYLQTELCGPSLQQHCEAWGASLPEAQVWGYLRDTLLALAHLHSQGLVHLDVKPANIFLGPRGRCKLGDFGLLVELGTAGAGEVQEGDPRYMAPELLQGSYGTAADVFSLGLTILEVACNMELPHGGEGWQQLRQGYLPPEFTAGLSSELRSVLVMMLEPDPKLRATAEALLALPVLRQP
UniProt P30291, whole entry: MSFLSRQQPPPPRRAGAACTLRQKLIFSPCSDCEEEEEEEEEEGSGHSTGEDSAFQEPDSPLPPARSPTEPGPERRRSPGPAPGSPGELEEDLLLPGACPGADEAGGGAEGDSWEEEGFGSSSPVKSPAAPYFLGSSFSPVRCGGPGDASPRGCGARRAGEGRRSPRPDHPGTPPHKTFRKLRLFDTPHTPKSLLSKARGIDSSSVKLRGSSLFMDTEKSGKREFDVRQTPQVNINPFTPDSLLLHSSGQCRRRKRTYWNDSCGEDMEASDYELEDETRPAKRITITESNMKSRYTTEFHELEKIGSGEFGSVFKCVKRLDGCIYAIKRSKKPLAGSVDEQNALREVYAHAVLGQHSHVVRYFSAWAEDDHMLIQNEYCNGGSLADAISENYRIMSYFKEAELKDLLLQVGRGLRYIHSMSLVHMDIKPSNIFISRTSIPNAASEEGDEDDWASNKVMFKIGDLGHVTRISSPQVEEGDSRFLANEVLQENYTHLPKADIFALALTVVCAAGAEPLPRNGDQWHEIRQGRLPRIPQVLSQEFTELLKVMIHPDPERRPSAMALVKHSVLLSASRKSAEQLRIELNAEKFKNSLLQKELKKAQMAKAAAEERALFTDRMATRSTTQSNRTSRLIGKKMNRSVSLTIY

Columns and labels:
Human PKMYT1 = Human PKMYT1 (Homo sapiens, UniProt Q99640); assay: PKMYT1 biochemical ADP-Glo enzymatic assay; settings: read-out: PKMYT1 IC50, 15 nM PKMYT1 kinase domain, 500 µM ATP, 60 minutes at 26° C., banded
Method: Human PKMYT1 75-362 was cloned as a TEV cleavable 6xHis fusion in bacterial cells. After purification on a Ni++HiTrap Chelating HP column, the His-tag was cleaved using TEV protease. Cleaved PKMYT1 was further purified on a Superdex 200 16/600 sizing column. The fractions containing PKMYT1 were pooled and concentrated using an ultrafiltration centrifugal protein concentrator. The purified protein was aliquoted, flash frozen in liquid nitrogen, and stored at −80° C.
PKMYT1 biochemical assay: Inhibition of PKMYT1 was assessed using the ADP-Glo™ Max Detection System from Promega. This assay detects the production of ADP from ATP by PKMYT1 via a two-step process ultimately involving the conversion of ADP to ATP with the latter converted to light in a coupled reaction with luciferase/luciferin. Inhibition of PKMYT1 by small molecule inhibitors results in a retardation of luminescence above background. The intrinsic ATPase activity of PKMYT1 was assessed according to the following protocol. […] After 60 minutes the luminescence signal was read on a PHERAStar FS microplate reader (BMG Labtech).
Data analysis: Data was captured and analysed within the Dotmatics Studies software module where dose response curves were generated and IC50 values determined. […]

WEE1 = WEE1 (Homo sapiens, UniProt P30291); assay: Selectivity versus WEE1 assay (ADP-Glo enzymatic assay); settings: banded; for PKMYT1 vs. WEE1 selectivity: fold difference in selectivity for PKMYT1 over WEE1, ">N" = at least in this band but could be higher; for IC50: read-out: WEE1 IC50, ADP-Glo, 15 nM WEE1, 30 µM ATP, 60 minutes at 26° C.
Method: Selectivity versus WEE1 assay: Selectivity was established using the same format as outlined for PKMYT1. After dosing of compounds via the Echo acoustic dispenser—as described above—WEE1 (Thermo Fisher PR7373A) was added to each well at a final concentration of 15 nM in a buffer of 50 mM HEPES (pH 7.5), 10 mM MgCl2, 1 mM EGTA, 0.01% Brij-35, 1% DMSO. 30 µM ATP was added to start the reaction with the final assay volume being 4 μl. The plate was then incubated for 60 minutes at 26° C. before the addition of 4 μl of ADP-Glo Reagent. Following a further 60 minute incubation the assay signal was developed by the addition of 8 μl ADP-Glo Detection Reagent. After 60 minutes the luminescence signal was read on a PHERAStar FS microplate reader (BMG Labtech).
Data analysis: Data was captured and analysed within the Dotmatics Studies software module where dose response curves were generated and IC50 values determined. Acceptance and verification of data followed strict in-house business rules which are summarised as follows. […] Technical and biological replicates of each compound are routinely tested and replicate IC50 values must fall within 3-fold of each other with dose response curves showing ‘goodness of fit’ r2 values >0.9. Failure to meet any of these defined criteria result in rejection of data.

IC50 (Human PKMYT1) | PKMYT1 vs. WEE1 selectivity (WEE1) | IC50 (WEE1) | Compound
< 50 nM | Y (1000-5000 fold) | > 11000 nM | CCCCn1nc(C)cc1Nc1ncc(C(=O)Nc2c(C)ccc(O)c2C)s1
50 to 1000 nM | W (10-<100 fold) | > 11000 nM | CCCCn1nc(Nc2ncc(C(=O)Nc3c(C)ccc(O)c3C)s2)cc1C

Structures were worked out from names or drawings and are uncertain.
